Some of the results follow. Shown are side measurements of this screen, not its main read-out; they come without a call. Compounds called inactive in the main read-out are mostly missing here. Potencies come from curve fits of mixed quality, noted in brackets.
Assay: qHTS Assay to Find Inhibitors of Chronic Active B-Cell Receptor Signaling
Settings: ABC-DLBCL IkBa-CBG/CBR reporter, luminescence ratio (green luciferase fused to IkBa over red control in TMD8 lymphoma cells), 4 h
Summary of the method: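 Compounds up to 46 uM were incubated four hours with TMD8 cells whose green CBG68 luciferase is fused to IkappaBalpha; red CBR luminescence normalised the signal, and concentration-effect curves were fitted to fusion, red and ratio data.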

[1] = measured here: CBR red luminescence, cell number
[2] = measured here: IkBa-CBG green luminescence

| SMILES | AC50 [1] | AC50 [2] |
| --- | --- | --- |
| O=C(Nc1ccccc1C(=O)O)c1ncn[nH]1 | 6.31 µM [rising, single point] | – |
| COC(=O)c1sccc1NC(=O)c1ccccc1[N+](=O)[O-] | 9.2 µM [rising, partial curve] | – |
| Cc1cccc(NC(=O)CN2CCN(CC(=O)Nc3ccc(-c4ccccc4)cc3)CC2)c1C | 10 µM [falling, single point] | – |
| CCOC(=O)c1ccc(NC(=S)Nc2ccccc2)cc1 | 0.517 µM [rising, partial curve, poor fit] | – |
| CC(=O)c1c(C)[nH]c(C(=O)OCc2ccc(Br)cc2)c1C | 17.8 µM [rising, partial curve, poor fit] | – |
| Cc1cc(/C=N/NC(=O)c2ccsc2)c(C)n1-c1cnccn1 | 25.1 µM [falling, single point] | – |
| COc1ccccc1N1C(=O)C2C(C(=O)c3ccccc3)=NN(c3ccc(Br)cc3)C2C1=O (stereo not drawn) | 11.2 µM [rising, partial curve] | – |
| COc1ccc(NS(=O)(=O)c2cc(-c3cnc(C4CC4)o3)ccc2C)cc1 | – | 10 µM [falling, partial curve] |
| Cc1ccc(CNC(=O)CCCOc2cc(=O)n(C)c3ccccc23)o1 | 18.4 µM [rising, single point] | 20.6 µM [falling, single point] |
| Cc1ccccc1N(C)C(=O)C1CCCN(c2ncnc3c2nc2n3CCCCC2)C1 (stereo not drawn) | 2.82 µM [rising, partial curve, poor fit] | – |
| O=C(c1ccc(Cl)cc1)N1CCN(S(=O)(=O)/C=C/c2ccccc2)CC1 | 20.6 µM [falling, partial curve, poor fit] | – |
| O=C(c1ccc(Cl)c([N+](=O)[O-])c1)N(Cc1ccc(Cl)cc1)C1CCS(=O)(=O)C1 (stereo not drawn) | 29.1 µM [falling, partial curve, poor fit] | – |
| Cc1cccc(N2C(=O)SC(N(CC(=O)O)c3cccc(C)c3)C2=O)c1 (stereo not drawn) | 12.6 µM [falling, partial curve, poor fit] | – |
| CCc1nc(SCC(=O)NNC(=O)c2ccc(C)cc2)c2ccccc2n1 | 20 µM [falling, single point] | – |
| O=C(OCC(O)C(O)COC(=O)c1ccccc1)c1ccccc1 (stereo not drawn) | 0.708 µM [rising, partial curve, poor fit] | – |
| COc1ccc(C2NC(=S)NC(C)=C2C(=O)Nc2ccccn2)cc1OC (stereo not drawn) | 0.92 µM [rising, full curve, poor fit] | – |
| COc1ccc(CCNC(=O)C2CCC(=O)N2Cc2ccccc2Cl)cc1OC (stereo not drawn) | 6.31 µM [rising, single point] | – |

Two of the compounds above, in CSV form.
SMILES,AC50 [1],AC50 [2]
O=C(OCC(O)C(O)COC(=O)c1ccccc1)c1ccccc1 (stereo not drawn),"0.708 µM [rising, partial curve, poor fit]",–
COc1ccc(C2NC(=S)NC(C)=C2C(=O)Nc2ccccn2)cc1OC (stereo not drawn),"0.92 µM [rising, full curve, poor fit]",–
